PubChem BioAssay AID1259308 – NCATS, 2017

Aim: 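Knock-downs that increase output of a recombinant reporter protein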 (primary screen)
Cell system: human HEK293 embryonic kidney cells stably expressing firefly luciferase (HEK-CMV-Luc2-Hygro)
Knock-down reagent: single siRNA against human genes, 0.8 pmol siRNA per well
Duration: 72 h
Measurement: 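Luciferase light (ONE-Glo) measured on one replicate plate set and viability (CellTiter-Glo) on the other, scaled to a negative control siRNA, with robust z-scores and luciferase per cell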
Reading the numbers: total luciferase, z-score and total luciferase, % of control: higher = more reporter protein produced
Active means: 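Active when the median/MAD z-score for overall luciferase is greater than 3; a gene was taken forward for validation with new siRNAs if at least two of its three siRNAs passed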
Calls: active = raised luciferase; inactive = no rise
Shown is one part, drawn at random, of about 59,000 reagents tested. About 1,510 of them (2.6%) were called active. 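Calls use total luciferase alone and ignore viability, so some active siRNAs may act by altering cell number.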 Reagents against one gene are numbered here. Not all columns of the deposit are shown.

NPIPB15 #1 gave total luciferase, z-score -0.0651; total luciferase, % of control 80.6; inactive. NPIPB15 #2 showed total luciferase, z-score -0.731; total luciferase, % of control 67.3; inactive. NPIPB15 #3 gave total luciferase, z-score -2.52; total luciferase, % of control 31.8; inactive. Silencing of PECR #1 came out at: total luciferase, z-score 0.971; total luciferase, % of control 101; inactive. Silencing of PECR #2 gave: total luciferase, z-score 0.199; total luciferase, % of control 85.9; inactive. Silencing of PECR #3 gave: total luciferase, z-score -0.421; total luciferase, % of control 73.5; inactive.

For MLLT10 #1, the entry reads total luciferase, z-score 1.34; total luciferase, % of control 108; inactive. MLLT10 #2 showed total luciferase, z-score -0.00491; total luciferase, % of control 81.8; inactive. Against MLLT10 #3, the values are total luciferase, z-score 0.52; total luciferase, % of control 92.2; inactive. Against DENND4C #1, the entry reads total luciferase, z-score -0.433; total luciferase, % of control 73.3; inactive. For DENND4C #2, the entry reads total luciferase, z-score -0.107; total luciferase, % of control 79.8; inactive. After knock-down of DENND4C #3, the screen gave total luciferase, z-score -0.265; total luciferase, % of control 76.6; inactive.

After knock-down of C2CD5 #1, the screen gave total luciferase, z-score 1.14; total luciferase, % of control 105; inactive. C2CD5 #2 scored total luciferase, z-score 0.0539; total luciferase, % of control 83; inactive. With knock-down of C2CD5 #3, the record shows total luciferase, z-score -0.697; total luciferase, % of control 68; inactive. After knock-down of WDR74 #1, the record shows total luciferase, z-score -2.1; total luciferase, % of control 40.2; inactive. After knock-down of WDR74 #2, the screen gave total luciferase, z-score 0.526; total luciferase, % of control 92.4; inactive. Silencing of WDR74 #3 came out at: total luciferase, z-score -0.345; total luciferase, % of control 75; inactive.

After knock-down of PDHB #1, the screen gave total luciferase, z-score 1.34; total luciferase, % of control 109; inactive. PDHB #2 gave total luciferase, z-score 0.214; total luciferase, % of control 86.1; inactive. PDHB #3 showed total luciferase, z-score 0.529; total luciferase, % of control 92.4; inactive. After knock-down of CBX3P6 #1, the record shows total luciferase, z-score 2.19; total luciferase, % of control 126; inactive. After knock-down of CBX3P6 #2, the screen gave total luciferase, z-score 0.559; total luciferase, % of control 93; inactive. CBX3P6 #3 showed total luciferase, z-score -0.559; total luciferase, % of control 70.8; inactive.

Depletion of BOLA2 #1 gave: total luciferase, z-score 1.51; total luciferase, % of control 112; inactive. Against BOLA2 #2, the entry reads total luciferase, z-score -1.26; total luciferase, % of control 56.8; inactive. Depletion of BOLA2 #3 gave: total luciferase, z-score 0.526; total luciferase, % of control 92.3; inactive. SYS1 #1 scored total luciferase, z-score -0.254; total luciferase, % of control 76.8; inactive. SYS1 #2 gave total luciferase, z-score -0.0699; total luciferase, % of control 80.5; inactive. Depletion of SYS1 #3 resulted in: total luciferase, z-score 1.11; total luciferase, % of control 104; inactive.

Against PGGHG #1 the deposit lists total luciferase, z-score 3.08; total luciferase, % of control 143; active. For PGGHG #2, the values are total luciferase, z-score 1.18; total luciferase, % of control 105; inactive. For PGGHG #3, the values are total luciferase, z-score -0.929; total luciferase, % of control 63.4; inactive.
